# Assay results: paper PMC7133447
# Protein sequences, listed by entry. Tags and fused reporters are not part of them.
# UniProt Q62351, whole entry: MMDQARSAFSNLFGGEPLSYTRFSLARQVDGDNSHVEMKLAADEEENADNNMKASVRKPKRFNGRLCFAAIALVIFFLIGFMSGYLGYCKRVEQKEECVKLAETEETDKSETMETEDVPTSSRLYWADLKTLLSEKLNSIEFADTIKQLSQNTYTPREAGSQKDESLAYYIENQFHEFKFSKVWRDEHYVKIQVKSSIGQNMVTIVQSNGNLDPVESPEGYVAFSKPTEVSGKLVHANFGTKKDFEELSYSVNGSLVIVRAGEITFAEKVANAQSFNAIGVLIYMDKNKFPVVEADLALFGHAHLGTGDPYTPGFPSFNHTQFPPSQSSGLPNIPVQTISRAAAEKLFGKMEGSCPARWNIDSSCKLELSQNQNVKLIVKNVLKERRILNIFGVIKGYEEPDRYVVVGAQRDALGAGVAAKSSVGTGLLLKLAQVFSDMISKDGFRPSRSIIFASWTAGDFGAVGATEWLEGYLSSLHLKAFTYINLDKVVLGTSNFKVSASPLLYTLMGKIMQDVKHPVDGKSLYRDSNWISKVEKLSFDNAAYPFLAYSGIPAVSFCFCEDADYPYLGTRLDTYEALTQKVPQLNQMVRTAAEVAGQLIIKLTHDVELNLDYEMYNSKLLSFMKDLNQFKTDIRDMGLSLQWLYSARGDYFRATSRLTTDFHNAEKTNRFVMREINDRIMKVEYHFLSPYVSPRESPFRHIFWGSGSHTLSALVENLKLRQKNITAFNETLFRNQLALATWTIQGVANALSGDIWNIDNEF
# For at least one entry, the source does not settle the construct or the ends of the probe. At least one result comes from cells or an extract, where the contact may be indirect. Negatives hold for the conditions tested.
# Molecular target: transferrin receptor (TfR) / EpCAM on 4T1 cells (mouse) (UniProt Q62351)
# Test: flow cytometry (4T1 cells)
# Settings: Live-cell flow cytometry, 5e5 cells, 0-400 nM aptamer, PBS with 10% FCS, 0.1 mg/mL tRNA, 0.1 mg/mL BSA, 60 min, 37 C; aptamer folded in PBS with 5 mM MgCl2; protein on the cell surface; label: 3' TYE665; folded or branched DNA
sequence,measurement,value
GCGCGTGCACGCGCTAACGGATTCCTTTTCCGT [TENN],binding result,no binding
